# Measurements reported in the supplement of paper PMC8728848.
# The other results are listed elsewhere or left out.
# Key:
# Test in all cases: glycan array binding signal (z-score within array); higher = stronger binding
# Conditions in all cases: glycan notation: IUPAC condensed, linker removed
# [1] = target: GlcNAc(b1-3)Gal(b1-4)GlcNAc(b1-3)Gal(b1-4)GlcNAc(b1-3)GalNAc
# Outline: (§1)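 The binding signal is a Z-score computed within each array and averaged over linkers. Arrays of the same protein sequence at different concentrations or buffers were also averaged together. Data originate from 3228 arrays in the Consortium for Functional Glycomics database, kept only where the protein sequence was available.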
# [2] = target: GlcNAc(b1-3)Gal(b1-4)GlcNAc(b1-3)GalNAc
# Outline: as §1
# [3] = target: GlcNAc(b1-3)Gal(b1-4)GlcNAc(b1-3)[GlcNAc(b1-3)Gal(b1-4)GlcNAc(b1-3)]GalNAc
# Outline: as §1
# [4] = target: GlcNAc(b1-3)Gal(b1-4)GlcNAc(b1-6)[Gal(b1-3)]GalNAc
# Outline: as §1
# [5] = target: GlcNAc(b1-3)Gal(b1-4)GlcNAc(b1-6)[GlcNAc(b1-3)Gal(b1-3)]GalNAc
# Outline: as §1
# [6] = target: GlcNAc(b1-3)Gal(b1-4)GlcNAc(b1-6)[GlcNAc(b1-3)]Gal(b1-4)GlcNAc
# Outline: as §1
# GlcNAc(b1-3)GalNAc = target: GlcNAc(b1-3)GalNAc
# Outline: as §1
# GlcNAc(b1-3)Man = target: GlcNAc(b1-3)Man
# Outline: as §1
# [7] = target: GlcNAc(b1-3)[GlcNAc(b1-4)][GlcNAc(b1-6)]GlcNAc
# Outline: as §1
# [8] = target: GlcNAc(b1-3)[GlcNAc(b1-6)]Gal(b1-4)GlcNAc
# Outline: as §1
# [9] = target: GlcNAc(b1-3)[GlcNAc(b1-6)]GalNAc
# Outline: as §1
# [10] = target: GlcNAc(b1-4)Gal(b1-4)GlcNAc
# Outline: as §1
# GlcNAc(b1-4)GlcNAc = target: GlcNAc(b1-4)GlcNAc
# Outline: as §1
# [11] = target: GlcNAc(b1-4)GlcNAc(b1-4)GlcNAc
# Outline: as §1
# [12] = target: GlcNAc(b1-4)GlcNAc(b1-4)GlcNAc(b1-4)GlcNAc(b1-4)GlcNAc
# Outline: as §1
# [13] = target: GlcNAc(b1-4)GlcNAc(b1-4)GlcNAc(b1-4)GlcNAc(b1-4)GlcNAc(b1-4)GlcNAc
# Outline: as §1
# [14] = target: GlcNAc(b1-4)[GlcNAc(b1-6)]GalNAc
# Outline: as §1
# [15] = target: GlcNAc(b1-6)Gal(b1-4)GlcNAc
# Outline: as §1
# GlcNAc(b1-6)GalNAc = target: GlcNAc(b1-6)GalNAc
# Outline: as §1
# [16] = target: GlcNAc6S(b1-3)Gal(b1-4)GlcNAc
# Outline: as §1
# Kdn(a2-3)Gal(b1-3)GalNAc = target: Kdn(a2-3)Gal(b1-3)GalNAc
# Outline: as §1
# Kdn(a2-3)Gal(b1-3)GlcNAc = target: Kdn(a2-3)Gal(b1-3)GlcNAc
# Outline: as §1
# Kdn(a2-3)Gal(b1-4)Glc = target: Kdn(a2-3)Gal(b1-4)Glc
# Outline: as §1
# Kdn(a2-3)Gal(b1-4)GlcNAc = target: Kdn(a2-3)Gal(b1-4)GlcNAc
# Outline: as §1
# [17] = target: Kdn(a2-3)Gal(b1-4)[Fuc(a1-3)]GlcNAc
# Outline: as §1
# Kdn(a2-6)Gal(b1-4)GlcNAc = target: Kdn(a2-6)Gal(b1-4)GlcNAc
# Outline: as §1
# [18] = target: Man(a1-2)Man(a1-2)Man(a1-3)Man
# Outline: as §1
# [19] = target: Man(a1-2)Man(a1-2)Man(a1-6)[Man(a1-3)]Man
# Outline: as §1
# Man(a1-2)Man(a1-3)Man = target: Man(a1-2)Man(a1-3)Man
# Outline: as §1
# [20] = target: Man(a1-2)Man(a1-3)[Man(a1-2)Man(a1-6)]Man
# Outline: as §1
# [21] = target: Man(a1-2)Man(a1-3)[Man(a1-2)Man(a1-6)]Man(a1-6)[Man(a1-2)Man(a1-2)Man(a1-3)]Man
# Outline: as §1
# [22] = target: Man(a1-2)Man(a1-3)[Man(a1-2)Man(a1-6)]Man(a1-6)[Man(a1-2)Man(a1-2)Man(a1-3)]Man(b1-4)GlcNAc(b1-4)GlcNAc
# Outline: as §1
# [23] = target: Man(a1-2)Man(a1-3)[Man(a1-6)]Man(a1-6)[Man(a1-2)Man(a1-3)]Man(b1-4)GlcNAc(b1-4)GlcNAc
# Outline: as §1
# [24] = target: Man(a1-2)Man(a1-6)[Man(a1-3)]Man(a1-6)[Man(a1-2)Man(a1-2)Man(a1-3)]Man
# Outline: as §1
# [25] = target: Man(a1-2)Man(a1-6)[Man(a1-3)]Man(a1-6)[Man(a1-2)Man(a1-2)Man(a1-3)]Man(b1-4)GlcNAc(b1-4)GlcNAc
# Outline: as §1
# Man(a1-3)[Man(a1-6)]Man = target: Man(a1-3)[Man(a1-6)]Man
# Outline: as §1
# [26] = target: Man(a1-3)[Man(a1-6)]Man(a1-6)[Man(a1-2)Man(a1-3)]Man(b1-4)GlcNAc(b1-4)GlcNAc
# Outline: as §1
# [27] = target: Man(a1-3)[Man(a1-6)]Man(a1-6)[Man(a1-3)]Man
# Outline: as §1
# [28] = target: Man(a1-3)[Man(a1-6)]Man(a1-6)[Man(a1-3)]Man(b1-4)GlcNAc(b1-4)GlcNAc
# Outline: as §1
# [29] = target: Man(a1-3)[Man(a1-6)]Man(b1-4)GlcNAc(b1-4)GlcNAc
# Outline: as §1
# [30] = target: Man(a1-3)[Man(a1-6)]Man(b1-4)GlcNAc(b1-4)[Fuc(a1-6)]GlcNAc
# Outline: as §1
# Man(a1-6)Man = target: Man(a1-6)Man
# Outline: as §1
# Man(b1-4)GlcNAc = target: Man(b1-4)GlcNAc
# Outline: as §1
# MurNAc(b1-4)GlcNAc = target: MurNAc(b1-4)GlcNAc
# Outline: as §1
# Neu5Ac(a2-3)Gal = target: Neu5Ac(a2-3)Gal
# Outline: as §1
binder,measurement,setting,value
CM2 (Cordyceps militaris) (protein) MEIAEQNVGKSCAIVNLIPPKEGSNIWTAKQVTIARNLPPNRGTGRHQIDWSFGPVKVTGYVDTTNWEIGVTVSIMGIDLGTVYGNLRDGVVLNVDLFLAKGQVRFYLKNGNEVWVHLSVEIRFDGKFEGDYKIITV,glycan array binding signal (z-score),[1],-1.86
same,glycan array binding signal (z-score),[2],-0.335
same,glycan array binding signal (z-score),[3],1.04
same,glycan array binding signal (z-score),[4],0.614
same,glycan array binding signal (z-score),[5],-0.563
same,glycan array binding signal (z-score),[6],0.308
same,glycan array binding signal (z-score),GlcNAc(b1-3)GalNAc,-0.452
same,glycan array binding signal (z-score),GlcNAc(b1-3)Man,1.77
same,glycan array binding signal (z-score),[7],-1.22
same,glycan array binding signal (z-score),[8],-0.294
same,glycan array binding signal (z-score),[9],0.885
same,glycan array binding signal (z-score),[10],0.025
same,glycan array binding signal (z-score),GlcNAc(b1-4)GlcNAc,0.445
same,glycan array binding signal (z-score),[11],1.83
same,glycan array binding signal (z-score),[12],-0.448
same,glycan array binding signal (z-score),[13],-0.177
same,glycan array binding signal (z-score),[14],-1.51
same,glycan array binding signal (z-score),[15],0.789
same,glycan array binding signal (z-score),GlcNAc(b1-6)GalNAc,-0.561
same,glycan array binding signal (z-score),[16],0.213
same,glycan array binding signal (z-score),Kdn(a2-3)Gal(b1-3)GalNAc,0.552
same,glycan array binding signal (z-score),Kdn(a2-3)Gal(b1-3)GlcNAc,-0.024
same,glycan array binding signal (z-score),Kdn(a2-3)Gal(b1-4)Glc,-1.36
same,glycan array binding signal (z-score),Kdn(a2-3)Gal(b1-4)GlcNAc,-0.406
same,glycan array binding signal (z-score),[17],0.801
same,glycan array binding signal (z-score),Kdn(a2-6)Gal(b1-4)GlcNAc,0.249
same,glycan array binding signal (z-score),[18],0.65
same,glycan array binding signal (z-score),[19],-2.46
same,glycan array binding signal (z-score),Man(a1-2)Man(a1-3)Man,-1.81
same,glycan array binding signal (z-score),[20],0.418
same,glycan array binding signal (z-score),[21],2.53
same,glycan array binding signal (z-score),[22],-0.996
same,glycan array binding signal (z-score),[23],-0.649
same,glycan array binding signal (z-score),[24],-2.27
same,glycan array binding signal (z-score),[25],-0.263
same,glycan array binding signal (z-score),Man(a1-3)[Man(a1-6)]Man,1.02
same,glycan array binding signal (z-score),[26],2.43
same,glycan array binding signal (z-score),[27],-0.963
same,glycan array binding signal (z-score),[28],-0.558
same,glycan array binding signal (z-score),[29],-0.111
same,glycan array binding signal (z-score),[30],0.089
same,glycan array binding signal (z-score),Man(a1-6)Man,0.871
same,glycan array binding signal (z-score),Man(b1-4)GlcNAc,0.323
same,glycan array binding signal (z-score),MurNAc(b1-4)GlcNAc,-1.43
same,glycan array binding signal (z-score),Neu5Ac(a2-3)Gal,-0.813

# Quoted at random: two records from the list.
binder,measurement,setting,value
CM2 (Cordyceps militaris) (protein) MEIAEQNVGKSCAIVNLIPPKEGSNIWTAKQVTIARNLPPNRGTGRHQIDWSFGPVKVTGYVDTTNWEIGVTVSIMGIDLGTVYGNLRDGVVLNVDLFLAKGQVRFYLKNGNEVWVHLSVEIRFDGKFEGDYKIITV,glycan array binding signal (z-score),[27],-0.963
same,glycan array binding signal (z-score),[9],0.885
